Values quoted from earlier work in patent US10617705B1, “Isoquercitrin compositions” (priority 2019, dated 2020).
At least one structure is not confirmed: it was looked up by name or label, or the drawing left a doubt.

By UniProt entry, the sequences of proteins in these tests, tags left out. Residues count along the entry.
UniProt P07237, 18-508, species assumed: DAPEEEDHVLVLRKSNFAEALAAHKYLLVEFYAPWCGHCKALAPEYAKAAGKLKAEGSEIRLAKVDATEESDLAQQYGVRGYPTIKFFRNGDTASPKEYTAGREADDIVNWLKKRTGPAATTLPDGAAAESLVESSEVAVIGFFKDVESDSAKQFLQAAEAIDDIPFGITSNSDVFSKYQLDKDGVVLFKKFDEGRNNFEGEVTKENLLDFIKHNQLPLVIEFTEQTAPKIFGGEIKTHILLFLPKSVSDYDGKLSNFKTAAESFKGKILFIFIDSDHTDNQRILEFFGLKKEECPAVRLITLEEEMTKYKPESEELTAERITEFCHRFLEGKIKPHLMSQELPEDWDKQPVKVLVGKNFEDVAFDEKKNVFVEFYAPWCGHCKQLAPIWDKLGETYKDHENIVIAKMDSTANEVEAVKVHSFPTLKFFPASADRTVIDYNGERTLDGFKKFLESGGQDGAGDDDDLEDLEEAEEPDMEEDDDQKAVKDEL

Molecular target: protein disulfide isomerase (PDI) (Homo sapiens, UniProt P07237)
Details: reported in the literature; cited from earlier work

Compound: O=c1c(O[C@@H]2O[C@H](CO)[C@@H](O)[C@H](O)[C@H]2O)c(-c2ccc(O)c(O)c2)oc2cc(O)cc(O)c12 [isoquercitrin]
- inhibition of protein disulfide isomerase (PDI): can inhibit
